In the supplement of paper PMC10849652:
This is one part of the list.

Sequences of proteins named here, by UniProt entry; tags and fusion partners are left off. A change or cut given only in a name is not applied to a line headed by its entry.
UniProt O15230: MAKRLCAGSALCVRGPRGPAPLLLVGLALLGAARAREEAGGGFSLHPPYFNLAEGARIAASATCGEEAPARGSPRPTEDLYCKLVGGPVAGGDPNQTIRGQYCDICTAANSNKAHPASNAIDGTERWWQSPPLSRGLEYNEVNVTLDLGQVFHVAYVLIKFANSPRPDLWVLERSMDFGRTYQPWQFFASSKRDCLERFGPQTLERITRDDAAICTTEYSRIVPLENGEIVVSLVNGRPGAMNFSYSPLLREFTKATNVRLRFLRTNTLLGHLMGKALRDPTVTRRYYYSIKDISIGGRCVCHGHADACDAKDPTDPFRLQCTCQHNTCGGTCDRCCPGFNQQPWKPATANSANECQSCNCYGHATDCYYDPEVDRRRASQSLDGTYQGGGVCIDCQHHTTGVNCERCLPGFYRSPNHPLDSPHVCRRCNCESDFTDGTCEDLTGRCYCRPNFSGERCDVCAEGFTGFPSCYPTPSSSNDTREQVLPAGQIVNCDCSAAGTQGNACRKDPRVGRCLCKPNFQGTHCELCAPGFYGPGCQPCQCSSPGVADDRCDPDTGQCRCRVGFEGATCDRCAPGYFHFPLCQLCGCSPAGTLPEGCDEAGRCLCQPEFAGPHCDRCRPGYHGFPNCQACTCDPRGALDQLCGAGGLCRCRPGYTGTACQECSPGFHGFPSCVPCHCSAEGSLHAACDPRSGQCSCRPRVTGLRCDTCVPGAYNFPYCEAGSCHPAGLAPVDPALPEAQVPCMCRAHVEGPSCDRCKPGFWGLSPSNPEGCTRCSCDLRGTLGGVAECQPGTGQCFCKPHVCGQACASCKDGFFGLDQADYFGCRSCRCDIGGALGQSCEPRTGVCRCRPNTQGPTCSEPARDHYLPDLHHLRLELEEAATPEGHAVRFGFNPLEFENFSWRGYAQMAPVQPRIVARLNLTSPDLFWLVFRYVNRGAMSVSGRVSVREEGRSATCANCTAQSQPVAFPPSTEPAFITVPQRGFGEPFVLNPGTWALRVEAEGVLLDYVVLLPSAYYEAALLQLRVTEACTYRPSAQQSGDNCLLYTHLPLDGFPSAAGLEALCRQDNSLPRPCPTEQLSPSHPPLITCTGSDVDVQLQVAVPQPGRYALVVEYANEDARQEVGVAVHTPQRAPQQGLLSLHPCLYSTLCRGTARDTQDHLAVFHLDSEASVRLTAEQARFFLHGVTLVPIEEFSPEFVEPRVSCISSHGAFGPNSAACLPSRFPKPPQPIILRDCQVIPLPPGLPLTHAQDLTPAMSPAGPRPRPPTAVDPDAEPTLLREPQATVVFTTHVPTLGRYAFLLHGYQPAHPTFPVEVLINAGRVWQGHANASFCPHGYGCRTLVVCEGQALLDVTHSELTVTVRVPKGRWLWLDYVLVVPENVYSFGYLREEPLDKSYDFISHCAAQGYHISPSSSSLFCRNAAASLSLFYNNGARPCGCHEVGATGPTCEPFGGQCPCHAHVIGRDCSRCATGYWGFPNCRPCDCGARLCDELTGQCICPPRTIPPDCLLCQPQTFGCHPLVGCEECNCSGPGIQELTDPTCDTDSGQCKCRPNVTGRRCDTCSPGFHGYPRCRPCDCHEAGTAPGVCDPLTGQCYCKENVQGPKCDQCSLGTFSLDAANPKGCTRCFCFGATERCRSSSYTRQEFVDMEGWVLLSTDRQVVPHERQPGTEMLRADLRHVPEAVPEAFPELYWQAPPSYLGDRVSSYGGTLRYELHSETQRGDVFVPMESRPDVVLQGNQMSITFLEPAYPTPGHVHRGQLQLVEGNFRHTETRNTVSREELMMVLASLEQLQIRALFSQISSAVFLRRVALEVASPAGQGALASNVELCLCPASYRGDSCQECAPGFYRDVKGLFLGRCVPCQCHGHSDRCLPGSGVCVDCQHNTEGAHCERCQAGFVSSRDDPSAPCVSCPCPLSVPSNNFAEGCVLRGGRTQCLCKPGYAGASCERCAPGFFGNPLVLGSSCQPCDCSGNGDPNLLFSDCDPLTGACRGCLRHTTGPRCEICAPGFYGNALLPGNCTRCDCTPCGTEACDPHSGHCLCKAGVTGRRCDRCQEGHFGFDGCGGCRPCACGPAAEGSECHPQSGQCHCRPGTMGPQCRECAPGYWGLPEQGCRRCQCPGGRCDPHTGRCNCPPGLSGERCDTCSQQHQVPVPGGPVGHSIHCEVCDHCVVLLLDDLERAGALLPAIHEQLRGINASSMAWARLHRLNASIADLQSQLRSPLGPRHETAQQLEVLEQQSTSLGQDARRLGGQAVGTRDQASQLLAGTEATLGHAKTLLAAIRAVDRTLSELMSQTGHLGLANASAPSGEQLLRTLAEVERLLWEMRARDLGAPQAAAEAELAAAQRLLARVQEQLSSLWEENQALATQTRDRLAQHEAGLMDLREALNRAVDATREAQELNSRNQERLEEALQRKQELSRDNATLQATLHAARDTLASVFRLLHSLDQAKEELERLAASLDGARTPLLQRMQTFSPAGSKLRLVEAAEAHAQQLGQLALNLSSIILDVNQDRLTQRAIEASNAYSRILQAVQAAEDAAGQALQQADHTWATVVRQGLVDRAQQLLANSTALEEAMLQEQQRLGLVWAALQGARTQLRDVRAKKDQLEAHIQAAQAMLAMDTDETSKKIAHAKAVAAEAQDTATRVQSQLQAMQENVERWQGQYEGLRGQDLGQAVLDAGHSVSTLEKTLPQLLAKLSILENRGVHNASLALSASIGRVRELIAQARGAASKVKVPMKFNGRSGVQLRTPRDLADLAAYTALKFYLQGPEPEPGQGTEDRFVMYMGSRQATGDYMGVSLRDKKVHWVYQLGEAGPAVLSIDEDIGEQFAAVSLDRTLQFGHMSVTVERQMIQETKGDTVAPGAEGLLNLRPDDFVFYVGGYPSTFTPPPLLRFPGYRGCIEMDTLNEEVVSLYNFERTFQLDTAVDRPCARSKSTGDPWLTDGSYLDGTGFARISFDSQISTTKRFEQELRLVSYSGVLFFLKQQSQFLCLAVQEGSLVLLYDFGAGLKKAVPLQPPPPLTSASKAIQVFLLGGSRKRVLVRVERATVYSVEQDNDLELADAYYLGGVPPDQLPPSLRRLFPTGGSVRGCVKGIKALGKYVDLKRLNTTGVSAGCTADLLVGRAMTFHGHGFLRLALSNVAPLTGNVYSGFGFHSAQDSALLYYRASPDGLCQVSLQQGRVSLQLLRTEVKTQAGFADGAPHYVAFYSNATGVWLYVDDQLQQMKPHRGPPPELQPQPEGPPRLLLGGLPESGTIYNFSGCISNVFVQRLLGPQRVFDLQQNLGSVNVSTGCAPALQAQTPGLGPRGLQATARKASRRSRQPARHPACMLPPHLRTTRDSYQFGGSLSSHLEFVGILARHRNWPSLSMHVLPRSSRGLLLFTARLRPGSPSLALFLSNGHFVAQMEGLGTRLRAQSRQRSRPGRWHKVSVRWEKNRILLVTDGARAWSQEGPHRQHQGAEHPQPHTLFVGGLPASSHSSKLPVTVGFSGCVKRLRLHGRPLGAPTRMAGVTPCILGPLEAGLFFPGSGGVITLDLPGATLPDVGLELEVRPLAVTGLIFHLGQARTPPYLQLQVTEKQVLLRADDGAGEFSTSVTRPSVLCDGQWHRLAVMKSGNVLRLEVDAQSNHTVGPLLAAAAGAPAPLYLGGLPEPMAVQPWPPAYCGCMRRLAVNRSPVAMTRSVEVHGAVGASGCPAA
UniProt Q9Y2M5: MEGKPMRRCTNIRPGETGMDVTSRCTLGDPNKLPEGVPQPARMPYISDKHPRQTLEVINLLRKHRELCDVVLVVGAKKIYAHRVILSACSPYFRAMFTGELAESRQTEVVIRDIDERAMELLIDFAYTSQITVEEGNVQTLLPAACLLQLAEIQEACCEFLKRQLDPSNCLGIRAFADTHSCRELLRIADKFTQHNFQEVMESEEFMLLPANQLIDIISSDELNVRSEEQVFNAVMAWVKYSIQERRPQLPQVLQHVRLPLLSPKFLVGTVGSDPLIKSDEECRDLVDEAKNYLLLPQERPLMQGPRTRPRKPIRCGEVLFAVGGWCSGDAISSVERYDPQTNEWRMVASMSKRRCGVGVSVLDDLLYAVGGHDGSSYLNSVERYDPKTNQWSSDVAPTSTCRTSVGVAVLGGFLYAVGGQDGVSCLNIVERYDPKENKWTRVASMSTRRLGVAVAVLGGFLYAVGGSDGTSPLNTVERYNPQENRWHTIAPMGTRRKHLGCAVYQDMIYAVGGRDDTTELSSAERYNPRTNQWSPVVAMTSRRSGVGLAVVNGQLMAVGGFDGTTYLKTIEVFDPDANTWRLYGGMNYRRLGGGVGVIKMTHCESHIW
UniProt A6NCN2: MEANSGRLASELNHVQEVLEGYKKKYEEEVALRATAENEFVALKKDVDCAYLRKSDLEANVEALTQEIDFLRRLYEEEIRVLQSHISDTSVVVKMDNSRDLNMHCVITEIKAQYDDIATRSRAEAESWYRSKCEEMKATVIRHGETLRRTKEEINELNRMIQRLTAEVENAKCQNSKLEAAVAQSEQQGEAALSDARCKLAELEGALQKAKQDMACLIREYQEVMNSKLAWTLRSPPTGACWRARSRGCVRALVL
UniProt Q53HC5: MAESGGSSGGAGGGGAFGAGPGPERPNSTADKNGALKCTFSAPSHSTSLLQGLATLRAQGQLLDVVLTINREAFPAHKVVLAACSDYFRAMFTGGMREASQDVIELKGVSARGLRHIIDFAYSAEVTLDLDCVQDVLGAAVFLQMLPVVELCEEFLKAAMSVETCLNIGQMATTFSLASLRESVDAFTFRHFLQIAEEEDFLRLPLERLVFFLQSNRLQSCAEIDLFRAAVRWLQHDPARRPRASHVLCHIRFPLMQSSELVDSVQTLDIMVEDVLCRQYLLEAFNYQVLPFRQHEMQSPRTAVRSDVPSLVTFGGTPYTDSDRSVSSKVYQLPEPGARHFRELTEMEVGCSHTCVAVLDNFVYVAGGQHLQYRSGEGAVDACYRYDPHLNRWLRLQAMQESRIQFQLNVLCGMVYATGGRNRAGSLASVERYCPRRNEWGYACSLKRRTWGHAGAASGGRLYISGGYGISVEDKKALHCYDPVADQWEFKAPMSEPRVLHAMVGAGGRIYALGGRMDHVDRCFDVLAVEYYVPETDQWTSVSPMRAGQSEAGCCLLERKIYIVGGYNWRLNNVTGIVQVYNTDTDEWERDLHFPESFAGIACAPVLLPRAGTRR
UniProt Q8IXV7: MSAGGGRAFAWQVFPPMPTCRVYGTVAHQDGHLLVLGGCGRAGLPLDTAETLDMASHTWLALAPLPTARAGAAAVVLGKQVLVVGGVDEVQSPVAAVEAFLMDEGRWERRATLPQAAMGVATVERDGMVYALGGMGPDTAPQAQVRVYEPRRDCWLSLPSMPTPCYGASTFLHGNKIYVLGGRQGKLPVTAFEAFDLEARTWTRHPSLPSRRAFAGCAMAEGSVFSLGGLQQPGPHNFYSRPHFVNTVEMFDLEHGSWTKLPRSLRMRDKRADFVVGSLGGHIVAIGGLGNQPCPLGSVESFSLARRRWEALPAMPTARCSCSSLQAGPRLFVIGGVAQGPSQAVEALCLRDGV
UniProt P83111: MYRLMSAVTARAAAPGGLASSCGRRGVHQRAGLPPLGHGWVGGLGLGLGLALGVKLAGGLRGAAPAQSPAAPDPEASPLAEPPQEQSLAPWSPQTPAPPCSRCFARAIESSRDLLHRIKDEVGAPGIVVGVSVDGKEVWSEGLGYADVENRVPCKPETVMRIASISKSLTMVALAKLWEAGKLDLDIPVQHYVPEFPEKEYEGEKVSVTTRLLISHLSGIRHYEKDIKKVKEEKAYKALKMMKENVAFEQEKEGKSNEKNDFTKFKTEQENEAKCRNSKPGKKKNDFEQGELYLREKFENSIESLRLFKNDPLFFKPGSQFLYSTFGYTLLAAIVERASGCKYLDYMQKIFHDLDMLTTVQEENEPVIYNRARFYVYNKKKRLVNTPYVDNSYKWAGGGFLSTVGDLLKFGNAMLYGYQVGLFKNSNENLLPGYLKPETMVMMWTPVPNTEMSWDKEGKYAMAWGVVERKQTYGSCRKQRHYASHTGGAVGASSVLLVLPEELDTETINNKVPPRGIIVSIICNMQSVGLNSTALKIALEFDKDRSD
UniProt Q96MU8: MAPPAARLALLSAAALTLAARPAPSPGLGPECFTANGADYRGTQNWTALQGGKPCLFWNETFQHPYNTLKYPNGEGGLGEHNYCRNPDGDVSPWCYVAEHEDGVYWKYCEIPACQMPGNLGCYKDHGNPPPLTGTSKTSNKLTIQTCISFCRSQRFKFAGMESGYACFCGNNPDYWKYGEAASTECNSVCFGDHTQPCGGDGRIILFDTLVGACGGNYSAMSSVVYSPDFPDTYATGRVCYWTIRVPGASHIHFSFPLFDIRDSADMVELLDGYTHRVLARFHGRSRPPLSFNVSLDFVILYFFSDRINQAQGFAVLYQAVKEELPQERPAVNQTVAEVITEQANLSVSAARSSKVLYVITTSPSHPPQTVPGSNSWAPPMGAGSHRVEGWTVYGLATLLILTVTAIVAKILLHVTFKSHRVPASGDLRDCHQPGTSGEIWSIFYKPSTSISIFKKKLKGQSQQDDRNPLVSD

Compound: O=C(O)c1ccc2c(c1)nc(Nc1cccc(Cl)c1)c1ccncc12 [silmitasertib]
Assay: log2 fold change, soluble protein after heating vs DMSO (PISA); higher = thermal stabilisation; K562 lysate, 10 uM; active = over 0.2 and 3.5 SD of the protein, either way, in both replicates (recomputed)
Summary of the method: (§1)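 Quantification was by TMTpro 16plex LC-MS/MS with equalised channel sums, applied to the supernatant after 21,000xg for 90 min. Samples were crude K562 extract at 1 mg/mL protein in PBS pH 7.4 with 1 mM MgCl2, treated with 10 μM compound for 30 min, heated for 3 min across 48°C-58°C, pooled and brought to 0.5% NP-40 at 4°C. Values are log-two fold changes in thermal stability relative to solvent controls, from duplicates.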

log2 fold change, active:
KMT2B (UniProt Q9UMN6) -0.76

log2 fold change, inactive:
KIF21A (UniProt H0YI78) -0.016, KLHL17 (UniProt Q6TDP4) -0.015, KLF1 (UniProt Q13351) -0.084, LAMA5 (UniProt O15230) 0.071, KRT13 (UniProt K7EMD9) -0.362, KLHL22 (UniProt Q53GT1) 0, KLC1 isoform 10 (UniProt Q07866) -0.165, KLHL20 (UniProt Q9Y2M5) -0.07, KRAS isoform 2 (UniProt P01116) -0.015, LAMB2 (UniProt P55268) -0.001, KLHL42 (UniProt Q9P2K6) -0.037, KRT87P (UniProt A6NCN2) 0.011, KLHL26 (UniProt Q53HC5) 0.04, KPNA5 (UniProt O15131) 0.062, KIAA0586 isoform 3 (UniProt Q9BVV6) -0.023, LAMP2 isoform 2 (UniProt P13473) -0.004, KLHDC8B (UniProt Q8IXV7) 0.106, LAPTM4B (UniProt Q86VI4) -0.043, KTN1 (UniProt G3V5Q0) -0.171, LACTB (UniProt P83111) 0.01, LACRT (UniProt Q9GZZ8) -0.077, LAMA2 (UniProt P24043) -0.018, KIF1B isoform 3 (UniProt O60333) 0.124

Compound: O=C1NC(=O)C(c2cnc3ccccn23)=C1c1cn2c3c(cc(F)cc13)CN(C(=O)N1CCCCC1)CC2
Assay: as above
Summary of the method: as §1

log2 fold change, inactive:
KIF21B (UniProt O75037) 0.02, KDM5A (UniProt P29375) -0.022, KIF20A (UniProt O95235) 0.091, KMT2B (UniProt Q9UMN6) 0.211, LAMA5 (UniProt O15230) -0.118, KREMEN1 isoform 2 (UniProt Q96MU8) 0.206, KIFAP3 (UniProt Q92845) 0, KIF18B (UniProt Q86Y91) -0.098, KLHL20 (UniProt Q9Y2M5) 0.014, L3MBTL2 (UniProt Q969R5) -0.023, KIAA0930 isoform 2 (UniProt Q6ICG6) -0.057, KRAS isoform 2 (UniProt P01116) -0.045, KLC3 isoform 3 (UniProt Q6P597) 0.069, KLHL42 (UniProt Q9P2K6) 0.054, KLHL26 (UniProt Q53HC5) 0.02, KIAA0586 isoform 3 (UniProt Q9BVV6) -0.352, LAMP2 isoform 2 (UniProt P13473) 0.033, KLHDC8B (UniProt Q8IXV7) -0.016, L3MBTL4 (UniProt Q8NA19) 0.05, KLF3 (UniProt P57682) -0.07, LACTB (UniProt P83111) -0.033, KLF13 (UniProt Q9Y2Y9) 0.083, KLHL7 isoform 3 (UniProt Q8IXQ5) 0.002, KISS1R (UniProt Q969F8) 0, KIF1B isoform 3 (UniProt O60333) -0.027

Compound: c1cn2cc(-c3ccc4cn[nH]c4c3)nc(Nc3ccc(N4CCOCC4)cc3)c2n1 [entospletinib]
Assay: as above
Summary of the method: as §1

log2 fold change, inactive:
KIF21B (UniProt O75037) 0.064, KLHL17 (UniProt Q6TDP4) 0.149, KIF20A (UniProt O95235) -0.142, KMT2B (UniProt Q9UMN6) 0.116, LAMA5 (UniProt O15230) 0.085, KIFAP3 (UniProt Q92845) -0.082, KIF18B (UniProt Q86Y91) -0.035, KLHL22 (UniProt Q53GT1) 0.011, KLC1 isoform 10 (UniProt Q07866) -0.171, KLHL20 (UniProt Q9Y2M5) -0.075, L3MBTL2 (UniProt Q969R5) -0.002, KIAA0930 isoform 2 (UniProt Q6ICG6) 0.062, KRAS isoform 2 (UniProt P01116) -0.129, KLC3 isoform 3 (UniProt Q6P597) -0.132, LAMB2 (UniProt P55268) -0.252, KLHDC8B (UniProt Q8IXV7) -0.148, KTN1 (UniProt G3V5Q0) -0.119, LANCL3 (UniProt Q6ZV70) -0.063, L3MBTL4 (UniProt Q8NA19) -0.132, KLF3 (UniProt P57682) -0.186, LACTB (UniProt P83111) 0.059, LAMA2 (UniProt P24043) -0.011, KLHL7 isoform 3 (UniProt Q8IXQ5) -0.087, KIF1B isoform 3 (UniProt O60333) -0.041
